From article PMC4333415, “Structural insight into operator dre-sites recognition and effector binding in the GntR/HutC transcription regulator NagR” (Nucleic Acids Research, 2015) come the findings set out here.

The target of data set [1] is T1, NagR (YvoA) (Bacillus subtilis) (UniProt O34817).
T1 sequence (looked up, limits assumed): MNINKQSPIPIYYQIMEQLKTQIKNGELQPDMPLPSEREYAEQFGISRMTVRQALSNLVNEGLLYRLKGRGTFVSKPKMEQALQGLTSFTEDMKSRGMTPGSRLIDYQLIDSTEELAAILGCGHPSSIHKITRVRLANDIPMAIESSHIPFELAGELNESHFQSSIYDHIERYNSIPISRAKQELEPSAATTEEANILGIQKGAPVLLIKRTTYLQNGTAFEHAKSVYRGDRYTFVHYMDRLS
Put plainly: SEC. The note with it: 3 uM DNA; recombinant protein.

The target of data set [2] is T2, NagR-DBD (Bacillus subtilis) (UniProt O34817).
T2 sequence (looked up): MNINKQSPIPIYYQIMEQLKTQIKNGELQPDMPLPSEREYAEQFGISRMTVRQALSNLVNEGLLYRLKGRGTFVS
The data set can be described thus: SEC. The note with it: 3 uM DNA, non-equilibrium, no complex detected although SPR shows binding; recombinant protein; residues 1-75.

Data set [3] deals with T1, NagR (YvoA) (Bacillus subtilis). The data set can be described thus: EMSA. The note with it: 2 uM DNA; recombinant protein.
Data set [4] concerns the target T2, NagR-DBD (Bacillus subtilis). The data set can be described thus: EMSA. The note with it: 2 uM DNA; recombinant protein; residues 1-75.

For some assays here: Negatives hold for the conditions tested. At least one verdict was read from the data and is not stated in words by the source. Where a protein sequence is shown, tags need not be part of it. For some assays here: For at least one entry, the source does not settle the construct or the ends of the probe.

Regarding “CTGGTCTAGATCACT / GTGATCTAGACCAGT [15mer native nagAB dsDNA]”, the binding result in data set [1] is on record as “binds”; in data set [2], “no binding”; in data set [3], “binds”; in data set [4] it was “binds”.
Take “TTGGTATAGATCACT / GTGATCTATACCAAT [15mer native nagP dsDNA]”: the binding result in data set [3] and in data set [4] was “binds” in each case.
For the sequence “GTGGTCTAGACCACT / GTGGTCTAGACCACT [15mer palindromic dsDNA]”, the binding result in data set [3] and in data set [4] was “binds” each time.
